Only a part is listed here, and it is no random draw. At the low end of the ranking, values are background and their order means little.
Legend:
Assay in all cases: DAPPL (digital affinity profiling via proximity ligation, sequencing)
Conditions in all cases: 10 mM Tris-HCl pH 7.5, 50 mM NaCl, 1 mM DTT, 4% glycerol, room temperature, 30 min; GST-TFs on glutathione beads, 16-mer random dsDNA library, 0.1% …; high values mean tight binding; double strand, one strand shown; scale: fold enrichment (6-mer frequency, TF over GST control)
FEV = biological target: T1, FEV (UniProt Q99581)
T1 sequence: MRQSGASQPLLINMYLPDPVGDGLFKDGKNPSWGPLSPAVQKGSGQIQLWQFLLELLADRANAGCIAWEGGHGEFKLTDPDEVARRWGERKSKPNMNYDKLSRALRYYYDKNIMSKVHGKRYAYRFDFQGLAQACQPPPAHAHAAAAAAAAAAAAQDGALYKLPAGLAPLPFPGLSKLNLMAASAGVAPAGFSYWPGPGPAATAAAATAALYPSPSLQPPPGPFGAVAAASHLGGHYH

Sequences of proteins named here, by UniProt entry; tags and fusion partners are left off. A change or cut given only in a name is not applied to a line headed by its entry.
UniProt O43186: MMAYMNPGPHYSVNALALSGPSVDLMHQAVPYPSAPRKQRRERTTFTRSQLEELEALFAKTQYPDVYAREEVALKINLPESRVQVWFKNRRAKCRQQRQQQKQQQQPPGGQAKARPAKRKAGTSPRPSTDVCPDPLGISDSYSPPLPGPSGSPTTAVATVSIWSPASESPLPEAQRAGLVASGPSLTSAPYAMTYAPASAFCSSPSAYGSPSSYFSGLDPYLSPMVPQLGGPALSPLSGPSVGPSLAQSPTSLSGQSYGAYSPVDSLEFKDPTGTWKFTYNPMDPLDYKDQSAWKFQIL

CRX = CRX (UniProt O43186)
ELF5 = biological target: T2, ELF5 (UniProt Q9UKW6-2)
T2 sequence: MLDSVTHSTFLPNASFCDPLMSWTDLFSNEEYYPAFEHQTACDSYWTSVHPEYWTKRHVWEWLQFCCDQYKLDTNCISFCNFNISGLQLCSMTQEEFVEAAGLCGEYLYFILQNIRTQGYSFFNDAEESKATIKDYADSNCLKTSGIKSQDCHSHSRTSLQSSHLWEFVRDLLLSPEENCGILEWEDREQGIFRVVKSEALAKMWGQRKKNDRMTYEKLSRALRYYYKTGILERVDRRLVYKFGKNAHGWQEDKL

GACCCG
binding signal (FEV): 0.845 | binding signal (CRX): 0.594 | binding signal (ELF5): 0.86

AGAGAG
binding signal (FEV): 0.51 | binding signal (CRX): 0.481 | binding signal (ELF5): 0.501

GGATGA
binding signal (FEV): 0.951 | binding signal (CRX): 1.11

AGTAGT
binding signal (FEV): 0.924 | binding signal (CRX): 0.816

GGGACT
binding signal (FEV): 0.696 | binding signal (CRX): 0.653 | binding signal (ELF5): 0.646

AGCAGG
binding signal (FEV): 0.836 | binding signal (CRX): 0.734

TTAGAC
binding signal (FEV): 0.881 | binding signal (ELF5): 0.765

GCGGAT
binding signal (FEV): 0.952 | binding signal (ELF5): 0.961

AGACTA
binding signal (FEV): 0.773 | binding signal (ELF5): 0.782

GCATAA
binding signal (FEV): 0.826 | binding signal (ELF5): 0.796

AGGATC
binding signal (FEV): 0.902 | binding signal (ELF5): 0.927

GGAAGG
binding signal (FEV): 0.776 | binding signal (CRX): 0.435
